US20240092890A1
Substitutions are numbered along the chain they refer to. These are yes or no findings as the source states them, for the method shown. Some results given as binding are weak or reduced against the parent protein; the word gives no strength.

Legend:
[1] = molecular target: full-length Del 52 type mutant CALR with a FLAG-tag added downstream of the N-terminal signal sequence, secreted from UT-7/TPO cells (UniProt P27797); assay: immunoblot (SDS-PAGE, reducing) of culture supernatant of UT-7/TPO cells expressing FLAG-tagged Del 52 mutant CALR
[2] = molecular target: cleaved Del 52 type mutant CALR with a FLAG-tag, secreted from UT-7/TPO cells (UniProt P27797); assay: as above
[3] = molecular target: full-length Del 52 type mutant CALR with a FLAG-tag added downstream of the N-terminal signal sequence, secreted from UT-7/TPO cells (UniProt P27797); assay: immunoblot of culture supernatant
[4] = molecular target: cleaved Ins 5 type mutant CALR with a FLAG-tag, secreted from UT-7/TPO cells (UniProt P27797); assay: immunoblot of culture supernatant
[5] = molecular target: full-length Ins 5 type mutant CALR with a FLAG-tag added downstream of the N-terminal signal sequence, secreted from UT-7/TPO cells (UniProt P27797); assay: immunoblot of culture supernatant
[6] = molecular target: cleaved Del 52 type mutant CALR with a FLAG-tag, secreted from UT-7/TPO cells (UniProt P27797); assay: immunoblot of culture supernatant
[7] = molecular target: full-length Del 52 type mutant CALR with a FLAG-tag added downstream of the N-terminal signal sequence, secreted from UT-7/TPO cells (UniProt P27797); assay: immunoblot of proteins secreted from UT-7/TPO cells
[8] = molecular target: cleaved Ins 5 type mutant CALR with a FLAG-tag, secreted from UT-7/TPO cells (UniProt P27797); assay: as above
[9] = molecular target: full-length Ins 5 type mutant CALR with a FLAG-tag added downstream of the N-terminal signal sequence, secreted from UT-7/TPO cells (UniProt P27797); assay: as above
[10] = molecular target: cleaved Del 52 type mutant CALR with a FLAG-tag, secreted from UT-7/TPO cells (UniProt P27797); assay: as above
[11] = molecular target: cleaved Ins 5 type mutant CALR with a FLAG-tag, secreted from UT-7/TPO cells (UniProt P27797); assay: immunoblot (SDS-PAGE, reducing) of culture supernatant of UT-7/TPO cells expressing FLAG-tagged Ins 5 mutant CALR
[12] = molecular target: full-length Ins 5 type mutant CALR with a FLAG-tag added downstream of the N-terminal signal sequence, secreted from UT-7/TPO cells (UniProt P27797); assay: as above
[13] = molecular target: Ins 5 type mutant CALR protein on UT-7/TPO CALR Ins 5 cells (UniProt P27797); assay: flow cytometry on UT-7/TPO CALR Ins 5 cells, antibody 5 ug/mL, anti-human Fc secondary antibody; on UT-7/TPO vec cells (panel a) the sample lies on the control [b]
[14] = molecular target: Del 52 type mutant CALR protein on UT-7/TPO CALR Del 52 cells (UniProt P27797); assay: flow cytometry on UT-7/TPO CALR Del 52 cells, antibody 5 ug/mL, anti-human Fc secondary antibody; on UT-7/TPO vec cells (panel a) the sample lies on the control [c]
[15] = molecular target: Ins 5 type mutant CALR protein on UT-7/TPO CALR Ins 5 cells (UniProt P27797); assay: flow cytometry on UT-7/TPO CALR Ins 5 cells, antibody 5 ug/mL
[16] = molecular target: Del 52 type mutant CALR protein on UT-7/TPO CALR Del 52 cells (UniProt P27797); assay: flow cytometry on UT-7/TPO CALR Del 52 cells, antibody 5 ug/mL
[17] = molecular target: peptide having cysteine added to the N-terminus of the amino acid sequence (…) contained in SEQ ID NO: 1; assay: SPR (Biacore T200), antibody immobilised, peptide 1.25 to 20 nM (FIG. 5)
[18] = molecular target: peptide having cysteine added to the N-terminus of the amino acid sequence (…) contained in SEQ ID NO: 1; assay: SPR (Biacore T200), antibody immobilised by amine coupling (200 RU), peptide injected at 1.25, 2.5, 5, 10 and 20 nM
[19] = molecular target: T1, protein having an Fc region and a His-tag added to the N-terminus of SEQ ID NO: 1; assay: BLItz biolayer interferometry (Table 14)
T1 sequence: RRMMRTKMRMRRM

[20] = molecular target: T1, protein having an Fc region and a His-tag added to the N-terminus of SEQ ID NO: 1; assay: BLItz biolayer interferometry (Tables 16-1 to 16-2)

Measured: binding

B1: clone B3 antibody (antibody, V domains shown)
VH: QVQLQQSGAELVKPGSSVKISCKASGYTFTRNFIHWIKQQPGNGLEWIGWIFPGDGDTEYNQKFNGKATLTADKSSSTAYMQLSSLTSEDSAVYFCARGNYNYEYFDYWGQGVMVTVSS
VL: DIQMTQSPASLSASLGETVSIECLASEDIYSYLAWYQQKPGKSPQLLIFAANRLQDGVPSRFSGSGSGTQFSLKISGMQPEDEGDYFCLQGSKFPYTFGPGTKLELN
not listed: [13] | [14] | [15] | [16] | [17] | [18] | [19] | [20]
binds: all other assays above

B2: anti-cleaved mutant CALR-CD3 bispecific antibody made using a VH chain of SEQ ID NO: 2, a VL chain of SEQ ID NO: 3, a VH chain of SEQ ID NO: 8, and a VL chain … (bispecific antibody, V domains shown)
VH 1: B1 VH
VL 1: B1 VL
VH 2: QVQLVQSGGGVVQPGRSLRLSCKASGYTFTRYTMHWVRQAPGKGLEWIGYINPSRGYTNYNQKVKDRFTISRDNSKNTAFLQMDSLRPEDTGVYFCARYYDDHYSLDYWGQGTPVTVSS
VL 2: DIQMTQSPSSLSASVGDRVTITCSASSSVSYMNWYQQTPGKAPKRWIYDTSKLASGVPSRFSGSGSGTDYTFTISSLQPEDIATYYCQQWSSNPFTFGQGTKLQITR
binds: [13] | [14] | [15] | [16] | [17] | [18]

B3: clone C6 antibody (antibody, V domains shown)
VH: QVQLQQSGAELVKPGSSVKISCKASGYTFTSYFVHWIKQQPGDGLEWIGWIYPGDGDTEYNHKFNGKSTLTADRSSSTAYMQLSSLTSEDSAVYFCARGNYYDGREVMDAWGQGASVTVSS
VL: DVVLTQTPPTLSATIGQSVSISCRSSQSLLDSDGETYLNWLLQRPGQSPQLLIYSVSNLESGVPNRFSGSGSETDFTLKISGMEAEDLGVYYCMQATHGPYTFGAGTKLELK
binds: [2] | [3] | [4] | [5] | [6] | [7] | [8] | [9] | [10] | [11]

B4: clone G1 antibody (antibody, V domains shown)
VH: B3 VH with H62Q, S68A
VL: B3 VL with S48C, M83V, A96G
binds: [2] | [3] | [4] | [5] | [6] | [7] | [8] | [9] | [10] | [11]

B5: Antibody 23 (bispecific antibody)
heavy: QVQLQQSGAELVKPGSSVKISCKASGYTFTRNFIHWIKQQPGNGLEWIGWIFPGDGDTEYNQKFNGKATLTADKSSSTAYMQLSSLTSEDSAVYFCARGNYNYEYFDYWGQGVMVTVSSASTKGPSVFPLAPSSKSTSGGTAALGCLVKDYFPEPVTVSWNSGALTSGVHTFPAVLQSSGLYSLSSVVTVPSSSLGTQTYICNVNHKPSNTKVDKRVEPKSCHHHHHH
light: QVQLVQSGGGVVQPGRSLRLSCKASGYTFTRYTMHWVRQAPGKGLEWIGYINPSRGYTNYNQKVKDRFTISRDNSKNTAFLQMDSLRPEDTGVYFCARYYDDHYSLDYWGQGTPVTVSSGGGGSGGGGSGGGGSDIQMTQSPSSLSASVGDRVTITCSASSSVSYMNWYQQTPGKAPKRWIYDTSKLASGVPSRFSGSGSGTDYTFTISSLQPEDIATYYCQQWSSNPFTFGQGTKLQITRGGGGSDIQMTQSPASLSASLGETVSIECLASEDIYSYLAWYQQKPGKSPQLLIFAANRLQDGVPSRFSGSGSGTQFSLKISGMQPEDEGDYFCLQGSKFPYTFGPGTKLELNRTVAAPSVFIFPPSDEQLKSGTASVVCLLNNFYPREAKVQWKVDNALQSGNSQESVTEQDSKDSTYSLSSTLTLSKADYEKHKVYACEVTHQGLSSPVTKSFNRGEC
binds: [19]

B6: Antibody 26 (bispecific antibody)
heavy: QVQLVQSGGGVVQPGRSLRLSCKASGYTFTRYTMHWVRQAPGKGLEWIGYINPSRGYTNYNQKVKDRFTISRDNSKNTAFLQMDSLRPEDTGVYFCARYYDDHYSLDYWGQGTPVTVSSGGGGSGGGGSGGGGSDIQMTQSPSSLSASVGDRVTITCSASSSVSYMNWYQQTPGKAPKRWIYDTSKLASGVPSRFSGSGSGTDYTFTISSLQPEDIATYYCQQWSSNPFTFGQGTKLQITRGGGGSQVQLQQSGAELVKPGSSVKISCKASGYTFTRNFIHWIKQQPGNGLEWIGWIFPGDGDTEYNQKFNGKATLTADKSSSTAYMQLSSLTSEDSAVYFCARGNYNYEYFDYWGQGVMVTVSSASTKGPSVFPLAPSSKSTSGGTAALGCLVKDYFPEPVTVSWNSGALTSGVHTFPAVLQSSGLYSLSSVVTVPSSSLGTQTYICNVNHKPSNTKVDKRVEPKSCHHHHHH
light: B5 light
binds: [19]

B7: Antibody 27 (bispecific antibody)
heavy: QVQLQQSGAELVKPGSSVKISCKASGYTFTRNFIHWIKQQPGNGLEWIGWIFPGDGDTEYNQKFNGKATLTADKSSSTAYMQLSSLTSEDSAVYFCARGNYNYEYFDYWGQGVMVTVSSASTKGPSVFPLAPSSKSTSGGTAALGCLVKDYFPEPVTVSWNSGALTSGVHTFPAVLQSSGLYSLSSVVTVPSSSLGTQTYICNVNHKPSNTKVDKRVEPKSCGGGGSQVQLVQSGGGVVQPGRSLRLSCKASGYTFTRYTMHWVRQAPGKGLEWIGYINPSRGYTNYNQKVKDRFTISRDNSKNTAFLQMDSLRPEDTGVYFCARYYDDHYSLDYWGQGTPVTVSSGGGGSGGGGSGGGGSDIQMTQSPSSLSASVGDRVTITCSASSSVSYMNWYQQTPGKAPKRWIYDTSKLASGVPSRFSGSGSGTDYTFTISSLQPEDIATYYCQQWSSNPFTFGQGTKLQITRHHHHHH
light: B5 light
binds: [19]

B8: Antibody 106 (bispecific antibody)
chain 1: QVQLVQSGAEVKKPGSSVKVSCKASGYTFTRNFIHWIRQAPGQGLEWIGWIFPGDADTEYNQKFSGRATITADKSTSTAYMELSSLRSEDTAVYYCARGNYNYEYFDYWGQGTMVTVSSASTKGPSVFPLAPSSKSTSGGTAALGCLVKDYFPEPVTVSWNSGALTSGVHTFPAVLQSSGLYSLSSVVTVPSSSLGTQTYICNVNHKPSNTKVDKRVEPKSCGGGGSQVQLVQSGGGVVQPGRSLRLSCKASGYTFTRYTMHWVRQAPGKGLEWIGYINPSRGYTNYNQKVKDRFTISRDNSKNTAFLQMDSLRPEDTGVYFCARYYDDHYSLDYWGQGTPVTVSSGGGGSGGGGSGGGGSDIQMTQSPSSLSASVGDRVTITCSASSSVSYMNWYQQTPGKAPKRWIYDTSKLASGVPSRFSGSGSGTDYTFTISSLQPEDIATYYCQQWSSNPFTFGQGTKLQITRHHHHHH
chain 2: DIQMTQSPSSLSASVGDRVTITCLASEDIYSYLAWYQQKPGKAPKLLIFAANRLQDGVPSRFSGSGSGTDFTLTISSLQPEDFATYYCLQGSKFPYTFGPGTKVDIKRTVAAPSVFIFPPSDEQLKSGTASVVCLLNNFYPREAKVQWKVDNALQSGNSQESVTEQDSKDSTYSLSSTLTLSKADYEKHKVYACEVTHQGLSSPVTKSFNRGEC
binds: [20]
